From patent US20050169909A1
These are yes or no findings as the source states them, for the method shown. Some results given as binding are weak or reduced against the parent protein; the word gives no strength.

By UniProt entry, the sequences of proteins in these tests, tags left out. Where a name states a change or a piece, a line headed by the entry shows the natural chain unless it says otherwise. Chains listed by the source or under a name are the forms on record and can include a tag or linker. Residues count along the entry.
V5-tagged peptide comprising the CH2-CH3 region of human IgE (P01854, residues 104-318): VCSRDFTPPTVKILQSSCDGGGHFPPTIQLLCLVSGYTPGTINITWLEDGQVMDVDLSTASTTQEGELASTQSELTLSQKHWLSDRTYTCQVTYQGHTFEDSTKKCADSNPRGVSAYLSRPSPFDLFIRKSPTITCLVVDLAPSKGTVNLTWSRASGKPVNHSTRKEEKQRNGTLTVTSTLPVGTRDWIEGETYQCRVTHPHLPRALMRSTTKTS
V5-tagged peptide comprising the entire constant region of human IgE (P01854, form named): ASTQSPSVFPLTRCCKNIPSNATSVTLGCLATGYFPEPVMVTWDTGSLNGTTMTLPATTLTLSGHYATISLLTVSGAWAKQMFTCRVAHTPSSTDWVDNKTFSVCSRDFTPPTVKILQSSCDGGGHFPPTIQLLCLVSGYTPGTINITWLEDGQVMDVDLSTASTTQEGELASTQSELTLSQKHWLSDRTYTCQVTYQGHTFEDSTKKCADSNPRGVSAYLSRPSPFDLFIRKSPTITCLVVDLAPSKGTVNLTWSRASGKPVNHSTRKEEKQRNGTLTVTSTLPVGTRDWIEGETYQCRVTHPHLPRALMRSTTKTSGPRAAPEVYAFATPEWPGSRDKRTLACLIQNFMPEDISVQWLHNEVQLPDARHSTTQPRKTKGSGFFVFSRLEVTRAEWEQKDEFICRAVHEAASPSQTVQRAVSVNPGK

Assays:
[1] = molecular target: V5-tagged peptide comprising the CH2-CH3 region of human IgE (human) (UniProt P01854); test: Western blot of in vitro translated V5-tagged IgE Fc peptides (Example 12 B) [panel anti-IgE 5I]
[2] = molecular target: V5-tagged peptide comprising the entire constant region of human IgE (human) (UniProt P01854); test: as above
[3] = molecular target: V5-tagged peptide comprising the CH2-CH3 region of human IgE (human) (UniProt P01854); test: Western blot of in vitro translated V5-tagged peptide
[4] = molecular target: V5-tagged peptide comprising the entire constant region of human IgE (human) (UniProt P01854); test: as above
[5] = molecular target: V5-tagged peptide comprising the entire constant region of human IgE (human) (UniProt P01854); test: Western blot of in vitro translated V5-tagged IgE Fc peptides (Example 12 B) [panel anti-IgE 2C]

| binding [1] | binding [2] | binding [3] | binding [4] | binding [5] | Binder |
| --- | --- | --- | --- | --- | --- |
| binds | binds | binds | binds | – | Anti-IgE CL-5I (antibody, V domains shown) VH: QVQLVQSGAEVMKPGSSVKVSCKASGYTFSMYWLEWVRQAPGHGLEWMGEIDPGTFETNYNEKFKARVTFTADTSTSTAYMELSSLRSEDTAVYYCARFSHFSGSNYDYFDYWGQGTLVTVSS VL: EIVMTQSPATLSVSPGERATLSCRASQSIGTNIHWYQQKPGQAPRLLIYYASESISGIPARFSGSGSGTEFTLTISSLQSEDFAVYYCQQSWSWPTTFGGGTKVEIKT |
| – | – | binds | binds | binds | Anti-IgE CL-2C (antibody, V domains shown) VH: QVQLVQSGAEVMKPGSSVKVSCKASGYTFSWYWLEWVRQAPGHGLEWMGEIDPGTFTTNYNEKFKARVTFTADTSTSTAYMELSSLRSEDTAVYYCARFSHFSGSNYDYFDYWGQGTLVTVSS VL: EIVMTQSPATLSVSPGERATLSCRASQSIGTNIHWYQQKPGQAPRLLIYYASESISGIPARFSGSGSGTEFTLTISSLQSEDFAVYYCQQSWSWPTTFGGGTKVEIKT |
